In paper PMC10957924:
Results are given in words; binding and its absence hold for the method and conditions named. For some assays here: In cells and extracts the contact can be indirect. Some entries that bind do so weakly or less than the wild type. Where a sequence is shown, tags or fusion partners need not be part of it. Blank lines part the entries; values can stand above or below the binder they belong to.

Sequences of proteins named here, by UniProt entry; tags and fusion partners are left off. Residues count along the entry.
UniProt B1AWN6, residues 1778-2006: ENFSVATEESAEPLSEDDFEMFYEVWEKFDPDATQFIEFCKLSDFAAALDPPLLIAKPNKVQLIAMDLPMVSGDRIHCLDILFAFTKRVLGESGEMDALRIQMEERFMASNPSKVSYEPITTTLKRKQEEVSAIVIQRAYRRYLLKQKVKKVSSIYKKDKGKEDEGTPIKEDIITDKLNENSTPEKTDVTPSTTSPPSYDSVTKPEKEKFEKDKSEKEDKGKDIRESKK
UniProt Q9WTU3, residues 1765-1978: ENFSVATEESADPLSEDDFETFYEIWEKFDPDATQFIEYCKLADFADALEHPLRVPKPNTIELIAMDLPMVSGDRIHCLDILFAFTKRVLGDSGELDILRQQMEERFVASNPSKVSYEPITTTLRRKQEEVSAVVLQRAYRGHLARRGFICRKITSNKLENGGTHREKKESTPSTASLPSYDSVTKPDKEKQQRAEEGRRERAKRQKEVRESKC

What was measured:
[1] = biological target: C-terminus of NaV1.2 (amino acids 1778-2006) fused to the DNA-binding domain of LexA (UniProt B1AWN6); experiment: two-hybrid; library screen: L40 yeast co-transfected with the LexA bait plasmid pSN12CT and an adult mouse brain cDNA library in fusion with the GAL4 activation domain; growth on -his -leu -trp medium at 30 °C and LexA-driven β-galactosidase activity
[2] = biological target: C-terminus of NaV1.6 (amino acids 1765-1978) fused to the DNA-binding domain of LexA (mouse) (UniProt Q9WTU3); experiment: two-hybrid; mating: prey-only L40 cells crossed with AMR70 cells carrying LexA bait plasmids (pSN12CT, pSN16CT or negative controls); β-galactosidase activity with X-gal
[3] = biological target: C-terminus of NaV1.2 (amino acids 1778-2006) fused to the DNA-binding domain of LexA (UniProt B1AWN6); experiment: as above
[4] = biological target: GST-NaV1.2CT (UniProt B1AWN6); experiment: pull-down; GST proteins on glutathione sepharose beads incubated with the lysate of BL21 cells making His6-Calp10, 1 h at 37 °C, in presence or absence of calcium; binding buffer 50 mM Tris-HCl pH 7.5, 120 mM NaCl, 2 mM EGTA, 0.1% triton X-100, 2 mM DTT; western blot with anti-polyhistidine; only the target purified
[5] = biological target: GST-NaV1.6CT (mouse) (UniProt Q9WTU3); experiment: as above

binding [1]: binds | binding [2]: binds | binding [3]: binds
B1: Calpain-10 (amino acids 452 to 666), clone T22-322, fused to the GAL4 activation domain (domain or fragment, UniProt Q9ESK3 452-666)
chain: RCELSPGYYLAVPSTFLKDVPGQFLLRVFSTGKISLSAVRLATKGASPGTALPAGEWETVQLQGCWRAGQTAGGSRNFASYPCNPCLPFSVPEGAGPRYIRITLQQHCRLSDSQLHPIGFHVFQVPADGENQDACSLLLQEPLLSCVPHRYAQEVSRLCLLSVGNYRIVPSTYLPDTEGTFTVTIATRIDRQSIHSQEMLGQLLQEVSFMAVMKA

binding [4]: binds | binding [5]: binds
B2: His6-tagged Calpain 10 (amino acids 452-666) (domain or fragment, UniProt Q9ESK3 452-666)
chain: B1 chain
